No constants are given. Whether binding was seen depends on the method and setting. In cells and extracts the contact can be indirect. Some entries that bind do so weakly or less than the wild type.
Target: FLAG–WT PCTAIRE-1 (isoform 1) (human) (UniProt Q00536)
Assay: co-IP; HA–cyclin Y-like-1 (WT, S122A or S344A) co-expressed with FLAG–WT PCTAIRE-1 in COS-1; lysates immunoprecipitated with FLAG–agarose, immunoblot

The chains behind the UniProt entries cited, without tags or fusion partners. Where a name states a change or a piece, a line headed by the entry shows the natural chain unless it says otherwise.
UniProt Q00536: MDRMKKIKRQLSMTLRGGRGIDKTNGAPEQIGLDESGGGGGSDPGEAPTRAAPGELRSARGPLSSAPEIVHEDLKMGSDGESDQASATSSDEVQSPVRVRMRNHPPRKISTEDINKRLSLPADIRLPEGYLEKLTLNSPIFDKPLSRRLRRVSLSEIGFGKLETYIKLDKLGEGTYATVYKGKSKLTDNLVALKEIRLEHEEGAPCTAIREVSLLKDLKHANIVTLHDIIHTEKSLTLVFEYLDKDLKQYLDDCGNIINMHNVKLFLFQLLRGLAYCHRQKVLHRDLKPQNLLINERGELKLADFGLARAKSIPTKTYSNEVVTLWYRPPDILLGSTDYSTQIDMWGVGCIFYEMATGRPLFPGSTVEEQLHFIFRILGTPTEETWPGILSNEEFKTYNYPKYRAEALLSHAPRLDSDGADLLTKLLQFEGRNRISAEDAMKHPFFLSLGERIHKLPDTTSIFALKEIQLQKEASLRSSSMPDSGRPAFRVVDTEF
UniProt Q8N7R7: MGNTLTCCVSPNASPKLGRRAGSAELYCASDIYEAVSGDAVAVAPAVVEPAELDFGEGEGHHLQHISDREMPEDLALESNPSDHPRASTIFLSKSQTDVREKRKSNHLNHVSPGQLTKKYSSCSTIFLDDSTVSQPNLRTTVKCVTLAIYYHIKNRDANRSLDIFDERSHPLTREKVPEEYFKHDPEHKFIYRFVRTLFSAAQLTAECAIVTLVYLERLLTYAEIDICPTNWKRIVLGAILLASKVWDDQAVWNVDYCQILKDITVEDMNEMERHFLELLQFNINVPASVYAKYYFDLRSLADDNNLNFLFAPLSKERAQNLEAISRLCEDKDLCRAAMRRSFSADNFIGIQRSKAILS

Row | Substance | binding
1 | HA–WT cyclin Y-like-1 (from UniProt Q8N7R7 1-359) | binds
2 | HA–cyclin Y-like-1 S122A (from UniProt Q8N7R7 1-359) | no binding
3 | HA–cyclin Y-like-1 S344A (from UniProt Q8N7R7 1-359) | no binding
